PubChem BioAssay AID743121 | NCATS | 2013
Here is an unselected part of about 26,000 reagents. 167 of all reagents (0.63%) count as active. 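Calls are per gene from RSA p-values that are not deposited; an individual active-marked siRNA can sensitise only weakly.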 A number with no mark means an inactive call. Reagents against one gene are numbered here. Not all columns of the deposit are shown.

- Purpose: 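Partners whose loss is lethal together with topoisomerase I blockade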 (primary screen)
- Cell system: MDA-MB-231 cells, a human breast cancer line
- Reagents: single siRNA against human genes, 20 nM siRNA (0.8 pmol per well)
- Time to read-out: 120 h (drug added 48 h after transfection, read 72 h later)
- Challenge: camptothecin 20 nM (about EC30) for 72 h; vehicle 0.1% DMSO in parallel plates
- Measurement: 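CellTiter-Glo ATP signal, scaled to control siRNA as percent viability; sensitisation given as log2 of untreated divided by camptothecin-treated viability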
- Scale: log2 vehicle/camptothecin viability: higher = stronger sensitisation to camptothecin; viability with camptothecin: higher = more viable cells
- Hit rule: 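Active genes have an RSA gene-level p-value below 0.001, computed from the ratios of their separate siRNAs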

no.	target	reagent no.	log2 vehicle/camptothecin viability	viability with camptothecin (% of control)
1	ABCE1	1	-0.122	60.4
2	ABCE1	2	-0.285	62.4
3	ABCE1	3	-0.479	59.2
4	FRK	1	-0.325	102
5	FRK	2	0.143	40.1
6	FRK	3	0.116	88.1
7	FRK	4	0.0359	60.1
8	E2F2	1	0.376	53
9	E2F2	2	-0.646	51.9
10	E2F2	3	-0.0916	112
11	PPP1R14D	1	0.408	41.5
12	PPP1R14D	2	-0.34	141
13	PPP1R14D	3	-0.267	65.5
14	PPP1R14D	4	0.17	45.8
15	CLEC4A	1	-0.212	112
16	CLEC4A	2	-0.00387	45.9
17	CLEC4A	3	-0.326	58.7
18	LIG1	1	0.204	102
19	LIG1	2	-0.139	88.9
20	LIG1	3	-0.294	118
21	MMP21	1	-0.0087	88.1
22	MMP21	2	-1.19	57.7
23	MMP21	3	0.404	47.5
24	KCNN4	1	-0.182	91.6
25	KCNN4	2	-0.278	78.5
26	KCNN4	3	0.0779	57.6
27	TNFSF13B	1	1.13	25.6
28	TNFSF13B	2	-0.105	93.7
29	TNFSF13B	3	0.0423	67.1
30	CCL3L1	1	0.0789	42.7
31	CCL3L1	2	-0.147	98.8
32	KIF5C	1	-0.293	78.2
33	KIF5C	2	-0.349	31.5
34	KIF5C	3	-0.0838	84.6
35	KIF5C	4	1.05	19.6
36	KIF5C	5	-0.163	105
37	KIF5C	6	0.0279	91.4
38	KIF5C	7	-0.143	51.1
39	KIF5C	8	-0.119	113
40	RAD51	1	-0.375	54.4
41	RAD51	2	0.82	26.1
42	RAD51	3	0.164	26.3
43	RAD51	4	0.11	47.4
44	MAD1L1	1	0.0375	88.8
45	MAD1L1	2	-0.217	108
46	MAD1L1	3	-0.308	81.9
47	MAD1L1	4	-0.155	70.5
48	PRMT2	1	-0.308	114
49	PRMT2	2	-0.0668	51.1
50	PRMT2	3	-0.0459	95.1
51	PRMT2	4	-2.74	73.3
52	GPR78	1	-0.141	93
53	GPR78	2	-0.326	36.5
54	GPR78	3	-0.296	52.4
55	GPR78	4	0.0973	76.2
56	MIPEP	1	0.142	61.4
57	MIPEP	2	0.266	96.8
58	MIPEP	3	0.672	22.9
59	MIPEP	4	-0.182	85.1
60	ZMPSTE24	1	-0.483	58.8
61	ZMPSTE24	2	0.179	80.3
62	ZMPSTE24	3	0.249	57.9
63	ZMPSTE24	4	-0.159	65.1
64	EFNB1	1	0.376	39.5
65	EFNB1	2	-0.0429	90.8
66	EFNB1	3	-0.224	106
67	EFNB1	4	-0.181	133
68	GNMT	1	1.17	19.1
69	GNMT	2	-0.242	29.7
70	GNMT	3	0.379	74.9
71	GNMT	4	-0.389	123
72	COL7A1	1	-0.166	80.6
73	COL7A1	2	-0.0161	58.7
74	COL7A1	3	0.00108	79.3
75	PLEK	1	-0.656	31.3
76	PLEK	2	0.716	43.1
77	PLEK	3	-0.0651	90.1
78	ULBP1	1	-0.154	62.1
79	ULBP1	2	-0.19	93.9
80	ULBP1	3	-0.18	120
81	ULBP1	4	0.126	83.9
82	NPC1	1	-0.154	103
83	NPC1	2	-0.174	50.4
84	NPC1	3	-0.35	82.3
85	NPC1	4	-0.331	103
86	PRSS23	1	-0.198	49.1
87	PRSS23	2	-0.508	75
88	PRSS23	3	-0.359	72.3
89	PRSS23	4	0.0507	82.8

Copied from the list.
EFNB1 #2, viability with camptothecin (% of control) → 90.8
For “viability with camptothecin (% of control)”, MIPEP #4 reads 85.1
ZMPSTE24 #3, log2 vehicle/camptothecin viability = 0.249
Under “log2 vehicle/camptothecin viability”, KIF5C #6 has 0.0279
Under “log2 vehicle/camptothecin viability”, PPP1R14D #1 has 0.408
Entry of MAD1L1 #2 under “viability with camptothecin (% of control)”: 108
